This is an account of results in the supplement of paper PMC9015667.

Each structure is given as a SMILES string. Counter-ions that a name gives are not always drawn. The list shows a part of the results. Most values come without repeats; read them as rough.

This test has as its system UACC62R (matched melanoma line resistant to BRAF inhibitors). Description: reduction in cell viability relative to untreated/vehicle; higher = more growth inhibition. The following applies: 200 nM; 72 h.
On to `Nc1ccccc1NC(=O)c1ccc(CNc2nccc(-c3cccnc3)n2)cc1` [Mocetinostat], for which the “reduction in cell viability” value was determined as 35.3%.

`O=C1c2c(O)cc(O)cc2OC(c2ccc(O)c(O)c2)C1O` (centres undefined) [Taxifolin]: the “reduction in cell viability” value is under 0%.

As for `CS(=O)(=O)Oc1ccc2c(NC(N)=O)c(C(=O)c3ccc(Cl)cc3Cl)oc2c1` [Lirimilast], the “reduction in cell viability” value was under 0%.

Consider `CC1CNc2c(cccc2S(=O)(=O)N[C@@H](CCCNC(=N)N)C(=O)N2CC[C@@H](C)C[C@@H]2C(=O)O)C1` (some centres undefined) [Argatroban], for which the “reduction in cell viability” value is under 0%.

Regarding `NC(=O)c1ncn([C@@H]2O[C@H](CO)[C@@H](O)[C@H]2O)n1` [Ribavirin], the “reduction in cell viability” value was under 0%.

For `CC(C)C[C@H](NC(=O)[C@@H](O)[C@H](N)Cc1ccccc1)C(=O)O` [Ubenimex], the “reduction in cell viability” value was under 0%.

As for `O=C(NCc1ccccc1)[C@H](Cc1ccccc1)NC(=O)[C@H]1O[C@@H]1C(=O)NCCc1ccc(O)cc1`, the “reduction in cell viability” value is under 0%.

Consider `Cc1c(C(=O)NN2CCCCC2)nn(-c2ccc(Cl)cc2Cl)c1-c1ccc(Cl)cc1` [Rimonabant], for which the “reduction in cell viability” value was under 0%.

Turning to `CC1(C)NC(=O)N(c2ccc([N+](=O)[O-])c(C(F)(F)F)c2)C1=O` [Nilutamide], the “reduction in cell viability” value is under 0%.

On to `Cc1csc(-c2nnc(Nc3ccc(Oc4ncccc4-c4ccnc(N)n4)cc3)c3ccccc23)c1`, for which the “reduction in cell viability” value was found to be 58.1%.

As for `c1cc(-c2sc(-c3ccncc3)c(-c3ccncc3)c2-c2ccncc2)ccn1`, the “reduction in cell viability” value was under 0%.

Turning to `c1ccc(CNc2nc(NCc3ccccc3)c3ccccc3n2)cc1`, the “reduction in cell viability” value was under 0%.

On to `O=C1NC(=O)/C(=C/c2ccc(-c3ccc(F)cc3O)o2)S1`, for which the “reduction in cell viability” value is under 0%.

As to `CC(=O)OCC(=O)[C@@]12N=C(C)O[C@@H]1C[C@H]1[C@@H]3CCC4=CC(=O)C=C[C@]4(C)[C@H]3[C@@H](O)C[C@@]12C` [Deflazacort], the “reduction in cell viability” value is under 0%.

As to `CN(N=O)C(=O)N[C@@H](C=O)[C@@H](O)[C@H](O)[C@H](O)CO` [Streptozocin], the “reduction in cell viability” value is under 0%.

On to `C=CC(=O)Nc1cccc(Oc2nc(Nc3ccc(N4CCN(C)CC4)cc3OC)ncc2Cl)c1`, for which the “reduction in cell viability” value was under 0%.

Regarding `COc1c(C)c2c(c(O)c1C/C=C(\C)CCC(=O)OCCN1CCOCC1)C(=O)OC2` [Mycophenolate mofetil], the “reduction in cell viability” value is under 0%.

Regarding `CN1C(=O)C[C@@H](C(=O)N[C@@H](Cc2c[nH]cn2)C(=O)N2CCC[C@H]2C(N)=O)NC1=O` [Taltirelin], the “reduction in cell viability” value is under 0%.

In the case of `CCC(C)N(C)C(=O)c1cc2ccccc2c(-c2ccccc2Cl)n1` (centres undefined), the “reduction in cell viability” value was under 0%.

For the compound `COc1cccc(-c2ccc(NC(=O)C3=C(C(=O)O)CCC3)c(F)c2)c1` [Vidofludimus], the “reduction in cell viability” value is under 0%.

On to `CCOCC(O)COc1ccc(NC(=O)CC[S+](C)C)cc1` (centres undefined) [Suplatast tosilate], for which the “reduction in cell viability” value is under 0%.

With `CCN(C(=O)c1c(O)c2c(Cl)cccc2n(C)c1=O)c1ccccc1` [Laquinimod], the “reduction in cell viability” value was under 0%.

Consider `CC[C@H]1OC(=O)[C@H](C)[C@@H](O[C@H]2C[C@@](C)(OC)[C@@H](O)[C@H](C)O2)[C@H](C)[C@@H](O[C@@H]2O[C@H](C)C[C@H](N(C)C)[C@H]2O)[C@](C)(O)C[C@@H](C)C(=O)[C@H](C)[C@@H](O)[C@]1(C)O` [Erythromycin], for which the “reduction in cell viability” value was under 0%.

As to `CN(C)Cc1cccc(N=C(c2ccccc2)c2c(O)[nH]c3cc(C(=O)N(C)C)ccc23)c1`, the “reduction in cell viability” value stood at 2.92%.

As to `COc1ccc(-c2ccc3ncc4c(c3c2)n(-c2ccc(N3CCNCC3)c(C(F)(F)F)c2)c(=O)n4C)cn1`, the “reduction in cell viability” value came out at 79.4%.

Consider `COc1c(OCCCN2CCOCC2)ccc2c1N=C(NC(=O)c1cnc(N)nc1)N1CCN=C21`, for which the “reduction in cell viability” value is under 0%.

In the case of `COc1cc(C(=O)NC2CCN(C)CC2)ccc1Nc1ncc2c(n1)N(C1CCCC1)CCC(=O)N2C(C)C`, the “reduction in cell viability” value came out at 9.56%.

For the compound `CN1CCC(=C2c3ccccc3C=Cc3ccccc32)CC1` [Cyproheptadine hydrochloride], the “reduction in cell viability” value was under 0%.

Turning to `CC[C@@]1(O)C(=O)OCc2c1cc1n(c2=O)Cc2cc3cc(O)ccc3nc2-1` [10-hydroxycamptothecin], the “reduction in cell viability” value is 72.6%.

On to `Nc1nc(-c2nn(Cc3ccccc3F)c3ncccc23)nc(N)c1N1CCOCC1`, for which the “reduction in cell viability” value is under 0%.

Regarding `CS(=O)(=O)Nc1ccc([N+](=O)[O-])cc1Oc1ccccc1` [Nimesulide], the “reduction in cell viability” value is under 0%.

For the compound `CC(C)[N+]1(C)[C@@H]2CC[C@H]1C[C@@H](OC(=O)C(CO)c1ccccc1)C2` (some centres undefined) [Ipratropium bromide hydrate], the “reduction in cell viability” value was under 0%.

With `CCCCCNC(=N)N/N=C/c1c[nH]c2ccc(OC)cc12` [Tegaserod maleate], the “reduction in cell viability” value was under 0%.

For the compound `COc1ccc2c(c1)c(CC(=O)O)c(C)n2C(=O)c1ccc(Cl)cc1` [Indomethacin], the “reduction in cell viability” value is under 0%.
